Assay results: PMC10167344
No constants are given. Whether binding was seen depends on the method and setting. Binding seen in cells or lysates may run through a third protein. Here binding means that the protein was enriched with, or labelled near, the bait; the list need not be complete.

Chains of the proteins cited; added tags and fusions are not shown.
UniProt P46934: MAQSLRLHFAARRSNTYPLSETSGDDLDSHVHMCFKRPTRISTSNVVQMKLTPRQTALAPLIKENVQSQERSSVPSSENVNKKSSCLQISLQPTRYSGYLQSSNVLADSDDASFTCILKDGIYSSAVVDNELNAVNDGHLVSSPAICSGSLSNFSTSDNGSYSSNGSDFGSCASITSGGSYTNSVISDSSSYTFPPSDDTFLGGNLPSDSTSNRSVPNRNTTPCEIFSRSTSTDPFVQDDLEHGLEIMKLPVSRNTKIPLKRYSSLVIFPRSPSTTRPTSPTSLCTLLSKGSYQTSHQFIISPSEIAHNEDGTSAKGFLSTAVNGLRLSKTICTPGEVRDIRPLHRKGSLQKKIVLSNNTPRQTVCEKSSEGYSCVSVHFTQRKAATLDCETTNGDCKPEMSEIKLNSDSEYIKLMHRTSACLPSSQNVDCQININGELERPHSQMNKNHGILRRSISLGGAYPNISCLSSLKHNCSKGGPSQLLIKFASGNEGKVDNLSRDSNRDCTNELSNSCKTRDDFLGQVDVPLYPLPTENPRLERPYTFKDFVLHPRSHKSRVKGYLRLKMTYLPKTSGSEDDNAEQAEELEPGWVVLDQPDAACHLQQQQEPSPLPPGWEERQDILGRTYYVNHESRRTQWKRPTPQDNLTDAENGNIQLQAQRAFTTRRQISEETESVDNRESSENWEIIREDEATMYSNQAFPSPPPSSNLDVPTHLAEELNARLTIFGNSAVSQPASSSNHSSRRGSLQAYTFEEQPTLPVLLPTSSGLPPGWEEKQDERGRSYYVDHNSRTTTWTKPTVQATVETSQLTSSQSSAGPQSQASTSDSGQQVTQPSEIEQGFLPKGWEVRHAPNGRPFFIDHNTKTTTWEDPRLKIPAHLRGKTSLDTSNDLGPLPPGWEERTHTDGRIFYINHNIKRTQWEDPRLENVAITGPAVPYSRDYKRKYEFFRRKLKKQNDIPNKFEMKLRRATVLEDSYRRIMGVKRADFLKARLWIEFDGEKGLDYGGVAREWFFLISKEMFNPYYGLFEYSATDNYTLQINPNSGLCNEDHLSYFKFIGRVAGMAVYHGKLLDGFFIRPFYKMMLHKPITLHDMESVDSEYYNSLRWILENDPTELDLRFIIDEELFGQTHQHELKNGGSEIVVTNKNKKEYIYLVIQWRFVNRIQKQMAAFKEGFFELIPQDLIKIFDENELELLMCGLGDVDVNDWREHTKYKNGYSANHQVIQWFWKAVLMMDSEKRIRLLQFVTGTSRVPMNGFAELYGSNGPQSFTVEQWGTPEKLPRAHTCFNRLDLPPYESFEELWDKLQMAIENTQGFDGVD
UniProt P60953: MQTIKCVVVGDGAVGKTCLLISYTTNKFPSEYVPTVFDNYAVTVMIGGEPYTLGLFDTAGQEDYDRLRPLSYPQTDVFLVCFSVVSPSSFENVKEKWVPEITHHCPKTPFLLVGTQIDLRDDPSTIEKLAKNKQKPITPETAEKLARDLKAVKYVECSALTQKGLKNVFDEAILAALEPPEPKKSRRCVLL

Molecular target: T1, LAPTM5 overexpressed in L02 hepatocytes (bait of the IP-mass spectrometry) (not stated (human or mouse cDNA cloned)) (UniProt Q13571)
T1 sequence: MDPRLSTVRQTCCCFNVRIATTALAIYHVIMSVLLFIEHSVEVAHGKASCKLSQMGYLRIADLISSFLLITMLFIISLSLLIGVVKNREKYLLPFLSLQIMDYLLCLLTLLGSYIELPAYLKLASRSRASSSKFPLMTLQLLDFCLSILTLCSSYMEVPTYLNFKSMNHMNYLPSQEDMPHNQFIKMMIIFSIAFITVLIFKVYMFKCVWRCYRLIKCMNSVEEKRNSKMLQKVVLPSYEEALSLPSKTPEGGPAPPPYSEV
Assay: affinity purification with mass spectrometry; LAPTM5 immunoprecipitated from Laptm5-overexpressing L02 hepatocytes, PAOA- or BSA-treated; LC-MS/MS; candidates present in the PAOA-treated group but diminished in the BSA-treated group, unique peptides >2

| binding | Substance |
| --- | --- |
| binds | NEDD4 (found by IP-MS of LAPTM5) (from UniProt P46934 1-1319) (enzyme) |
| binds | CDC42 (Cell Division Cycle 42; found by IP-MS of LAPTM5) (from UniProt P60953 1-191) |
